Data taken from PubChem BioAssay AID504834 (National Center for Advancing Translational Sciences (NCATS), 2011).
The campaign covered roughly 320,000 compounds. About 22,000 (6.9%) were called active. The inconclusive results got no clear call from the source; some entries with a clear call stand among them for comparison. Calls come from the whole dose curve; as a rule, active = well fitted inhibition curve with a large enough effect; inconclusive = small, poorly fitted or top-dose-only effect, or another doubt; inactive = no such curve, though single readings can be large or run the other way. Where the call is inconclusive, the potency comes from a doubtful curve fit.

test: Primary qHTS for delayed death inhibitors of the malarial parasite plastid, 96 hour incubation; settings: P. falciparum luciferase reporter growth; series mostly up to 28.7 µM
In short: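 Compounds incubated with erythrocytes infected by luciferase-expressing P. falciparum (2% hematocrit, 0.05% parasitemia final) for 96 hours, 37 C in 5% CO2. Growth inhibition scored as decreased luciferase luminescence.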
Potency is the fitted concentration of half-maximal effect.

SMILES | Potency
COc1cc(CNC(=O)CCCC/C=C/C(C)C)ccc1O | inconclusive: 19 µM [inhibitor, partial curve, poor fit]
COc1ccc(OC)c(NC2c3ccccc3C(=O)N2Cc2ccc3c(c2)OCO3)c1 (centres undefined) | inconclusive: 10.4 µM [inhibitor, single point]
OC(CNCCNc1ncccc1C(F)(F)F)COc1ccc(F)cc1 (centres undefined) | inconclusive: 18.5 µM [inhibitor, single point]
CCN1CCN(c2cc(-c3ccccc3)nc3cc(-c4cccc(F)c4)nn23)CC1 | active: 11.7 µM
O=C1Cc2cc(S(=O)(=O)Nc3ccccc3Cl)cc3c2N1CCC3 | inactive
CC(C)OC(=O)CSc1nnc2n1C(C)(C)Cc1ccccc1-2 | inconclusive: 13.1 µM [inhibitor, single point]
Cc1cc(C)nc(NNC(=O)c2ccccc2O)n1 | inactive
Cc1ccc(S(=O)(=O)Cc2ccc(C(=O)NCc3ccc4c(c3)OCO4)o2)cc1 | inconclusive: 3.7 µM [inhibitor, single point]
CC(C)n1c(SCC(=O)NC2CC2)nnc1C1CC1 | inconclusive: 10.4 µM [inhibitor, partial curve]
Cn1ncc2c(Nc3ccc(-c4ccccc4)cc3)ncnc21 | inconclusive: 18.5 µM [inhibitor, single point]
CC(=O)c1cccc(NC(=O)COc2ccccc2C(=O)c2cc(C#N)c(=O)n(C3CCCCC3)c2)c1 | inconclusive: 11.7 µM [inhibitor, single point]
COC(=O)c1ccc(NC(=O)C2CCCN2S(=O)(=O)c2ccc(F)cc2)cc1 (centres undefined) | inactive
O=C(c1ccco1)[C@@H]1[C@@H]2C(=O)N(c3ccc(F)cc3)C(=O)[C@@H]2C2c3ccccc3C=CN21 (some centres undefined) | inconclusive: 1.85 µM [inhibitor, single point]
CCC(=O)Nc1nc(C)c(C(=O)NC2CCCCC2)s1 | inconclusive: 18.5 µM [inhibitor, single point]
CN(Cc1ccccc1)S(=O)(=O)c1ccc(Cl)c(C(=O)N2CCC2)c1 | inconclusive: 0.0029 µM [inhibitor, full curve, poor fit]
C=C(C)CNC(=S)N/N=C(\C)c1ccc(OC)cc1 | inactive
CCNC(=S)N1CCN(c2nc(-c3cccc(OC)c3)cs2)CC1 | active: 10.4 µM
Cc1noc(C)c1COc1ccc(C(=O)N2CCCC(C(F)(F)F)C2)cc1 (centres undefined) | inactive
COc1cccc(C(=O)CN2CCN(S(=O)(=O)c3cccc([N+](=O)[O-])c3)CC2)c1 | active: 0.415 µM
CN(Cc1ccccc1)Cc1nc2c([nH]1)c(=O)n(C)c(=O)n2C | active: 10.4 µM
CCn1c(=O)c(C(=O)Nc2ccccn2)c(O)c2ccccc21 | inconclusive: 11.7 µM [inhibitor, single point]
O=C(O)c1ccn2c(C(=O)c3ccccc3)c(-c3ccccc3)cc2c1 | inactive
CCOC(=O)C1CCCN(C(=O)c2ccc(CS(=O)(=O)Cc3ccccc3C)o2)C1 (centres undefined) | inactive
COc1ccc(C2=CC(=O)C[C@H](c3ccc(OC)cc3)C2)cc1 | inactive
COC(=O)C1=C(c2c(C)noc2C)C[C@@H]2CC[C@H]1N2C(=O)N1CCC(O)(c2ccc(Cl)cc2)CC1 | inconclusive: 0.165 µM [inhibitor, full curve, poor fit]

As a short view, some entries already given.
SMILES | Potency
CC(=O)c1cccc(NC(=O)COc2ccccc2C(=O)c2cc(C#N)c(=O)n(C3CCCCC3)c2)c1 | inconclusive: 11.7 µM [inhibitor, single point]
COC(=O)c1ccc(NC(=O)C2CCCN2S(=O)(=O)c2ccc(F)cc2)cc1 (centres undefined) | inactive

(cont.)

SMILES | Potency
CCCn1c(C(O)c2ccc3c(c2)OCO3)nc2ccccc21 (centres undefined) | inconclusive: 2.94 µM [inhibitor, single point]
O=C(COC(=O)c1ccccc1Br)Nc1nnc(-c2ccccc2)o1 | inactive
O=C(COC(=O)Cc1n[nH]c(=O)c2ccccc12)Nc1cccc(C(F)(F)F)c1 | inactive
COc1ccc2ccccc2c1CNC(=O)CC1C(=O)NCCN1CC(C)C (centres undefined) | inconclusive: 0.465 µM [inhibitor, full curve, poor fit]
CCCOC(=O)c1ccc(-c2ccc(C=O)o2)cc1 | inconclusive: 18.5 µM [inhibitor, single point]
CCn1c(SCC(=O)NC2(C#N)CCCCC2)nc2ccccc2c1=O | inactive
CCOC(=O)N1CCC(N2Cc3cccc(C(=O)N4CCN(c5cccc(C)c5C)CC4)c3C2=O)CC1 | inconclusive: 10.4 µM [inhibitor, single point]
CN(C(=O)COC(=O)C1=COCCO1)c1c(N)n(Cc2ccccc2)c(=O)[nH]c1=O | inactive
CCCNC(=O)CSc1nnc(-c2ccccc2Br)n1-c1cccc(C(F)(F)F)c1 | inconclusive: 11.7 µM [inhibitor, single point]
NS(=O)(=O)c1ccc(N/N=C/c2cn(-c3ccccc3)nc2-c2ccccc2)c([N+](=O)[O-])c1 | inconclusive: 2.94 µM [inhibitor, single point]
CCCc1nnc(NC(=O)CCC(=O)N2CCN(Cc3cc(F)ccc3OC)CC2)s1 | inconclusive: 11.7 µM [inhibitor, partial curve]
CSc1ccc(CN(C)C(=O)CNC(=O)CNS(=O)(=O)c2ccc(C)c(C)c2)cc1 | inactive
COc1ccc(-c2csc(NC(=O)C3COc4ccccc4O3)n2)cc1OC (centres undefined) | inconclusive: 0.0029 µM [inhibitor, full curve, poor fit]
CC(C)(C)S(=O)(=O)c1cnc2c(-c3ccc(Cl)cc3)cnn2c1N | inactive
O=C(CC1SC(=O)N(c2ccccc2)C1=O)Nc1cccc2ccccc12 (centres undefined) | inactive
Cc1cc(/C=C2\C(=O)NC(=S)N(C)C2=O)c(C)n1C1CCCCC1 | inactive
CC1=NN(C(=S)Nc2ccccc2)C(C)(C)C1 | inconclusive: 11.7 µM [inhibitor, single point]
Cc1c(NC(=O)CCSCCc2ccccn2)cccc1[N+](=O)[O-] | inconclusive: 11.7 µM [inhibitor, single point]
Cc1ccc2c(Cl)cc(Cl)c(OCC(=O)NCc3ccco3)c2n1 | inconclusive: 18.5 µM [inhibitor, single point]
NC(=O)C1c2ccccc2Oc2ccccc21 | inactive
O=C(CN1CCN(c2nc(-c3ccccc3)cs2)CC1)NNC(=O)c1ccco1 | inconclusive: 18.5 µM [inhibitor, single point]
O=C(C(=O)N1CCCCCC1)c1c[nH]c2ccccc12 | inactive
CC(C)OCCCNC(=S)NNC(=O)C(c1ccccc1)c1ccccc1 | inconclusive: 13.1 µM [inhibitor, partial curve]
C=CCN1N=C(/C=C/c2ccccc2)CCC1=O | inactive
Cc1cc(OCC(=O)Nc2nccs2)c2c(C)cc(=O)oc2c1 | inconclusive: 3.7 µM [inhibitor, single point]

SMILES | Potency
Cc1cc(C)c(NC(=O)CN2C(=O)CC(C)S(=O)(=O)c3ccccc32)c(C)c1 (centres undefined) | inactive
O=C(O)[C@@H]1[C@H]2C[C@H]3c4[nH]c5ccccc5c4CCN3C[C@@H]2CC[C@@H]1O | active: 7.38 µM
C/C(=N\NC(=O)c1ccccc1O)c1c(O)cc(C)oc1=O | inconclusive: 0.0033 µM [inhibitor, full curve, poor fit]
O=C(NNC(=S)NC(=O)c1ccc(F)cc1)c1cccnc1 | inactive
Cc1ccccc1N1C(=O)C2ON(c3ccccc3)C(c3cccnc3)C2C1=O (centres undefined) | inactive
CC(=O)N/C(=C/c1ccc(Cl)cc1)C(=O)NCCc1c[nH]c2ccccc12 | inconclusive: 0.0147 µM [inhibitor, full curve, poor fit]
Clc1ccc(CN2CCN(c3ncccn3)CC2)c(Cl)c1 | inactive
CN1CCN(CCNC(=O)Nc2ccc(Cl)cc2)CC1 | inconclusive: 10.4 µM [inhibitor, single point]
CC1(C)Cc2ccccc2-c2[nH]c(=S)[nH]c(=O)c21 | inconclusive: 13.1 µM [inhibitor, single point]
CCNC(=S)NNC(=O)Cn1c(=O)c2c(ncn2CCOC)n(Cc2ccccc2)c1=O | inconclusive: 4.65 µM [inhibitor, partial curve]
COc1ccc(N2CCc3c(C)nc4c(OC)cc(OC)cc4c32)cc1 | inconclusive: 1.04 µM [inhibitor, partial curve, poor fit]
Cc1cccc(NS(=O)(=O)c2ccc(OCC(=O)N3CCCC3)cc2)c1 | inconclusive: 3.7 µM [inhibitor, partial curve, poor fit]
COc1ccc(C2OC(=O)Cc3cc(OC)c(OC)cc32)cc1 (centres undefined) | inactive
NNC(=O)c1ccc(COc2ccc3c(c2)CCC3)o1 | inconclusive: 18.5 µM [inhibitor, single point]
COc1ccccc1N1CCN(Cc2ccc(OC)c3ccccc23)CC1 | inconclusive: 1.04 µM [inhibitor, partial curve, poor fit]
Cc1cc(/C=N/n2cnnc2)c(C)n1-c1cccc(Cl)c1 | inactive
c1ccc(-c2nn3c(-c4ccccc4)nnc3s2)cc1 | inactive
CC(=O)N(C)C(c1ccc(N(C)C)cc1)c1nnnn1-c1c(C)cccc1C (centres undefined) | active: 5.22 µM
Cc1cccc(-c2nc(S(=O)(=O)c3ccccc3)c(N3CCOCC3)o2)c1 | inactive
COc1ccc(NC(=O)Nc2ccccc2SC)cc1OC | inconclusive: 11.7 µM [inhibitor, single point]
Cc1ccc(C(C)C)c(OCC(=O)NCC(c2cccs2)N2CCOCC2)c1 (centres undefined) | active: 10.4 µM
O=S(=O)(/N=C(/NC(=S)Nc1ccccc1)c1ccccc1)c1ccc(Cl)cc1 | inconclusive: 18.5 µM [inhibitor, single point]
COc1ccc(Cl)cc1NC(=O)C1CC(c2ccccc2O)=NO1 (centres undefined) | inactive
CCc1ccc(NC(=O)C(CC)Sc2nc3ccsc3c(=O)n2CCC(=O)O)cc1 (centres undefined) | inconclusive: 14.7 µM [inhibitor, single point]

Some of the entries so far, comma-delimited.
SMILES,Potency
CCOC(=O)N1CCC(N2Cc3cccc(C(=O)N4CCN(c5cccc(C)c5C)CC4)c3C2=O)CC1,"inconclusive: 10.4 µM [inhibitor, single point]"
C=CCN1N=C(/C=C/c2ccccc2)CCC1=O,inactive
